These results are taken from article PMC12109296.

The chains behind the UniProt entries cited, without tags or fusion partners.
UniProt Q9UPP1: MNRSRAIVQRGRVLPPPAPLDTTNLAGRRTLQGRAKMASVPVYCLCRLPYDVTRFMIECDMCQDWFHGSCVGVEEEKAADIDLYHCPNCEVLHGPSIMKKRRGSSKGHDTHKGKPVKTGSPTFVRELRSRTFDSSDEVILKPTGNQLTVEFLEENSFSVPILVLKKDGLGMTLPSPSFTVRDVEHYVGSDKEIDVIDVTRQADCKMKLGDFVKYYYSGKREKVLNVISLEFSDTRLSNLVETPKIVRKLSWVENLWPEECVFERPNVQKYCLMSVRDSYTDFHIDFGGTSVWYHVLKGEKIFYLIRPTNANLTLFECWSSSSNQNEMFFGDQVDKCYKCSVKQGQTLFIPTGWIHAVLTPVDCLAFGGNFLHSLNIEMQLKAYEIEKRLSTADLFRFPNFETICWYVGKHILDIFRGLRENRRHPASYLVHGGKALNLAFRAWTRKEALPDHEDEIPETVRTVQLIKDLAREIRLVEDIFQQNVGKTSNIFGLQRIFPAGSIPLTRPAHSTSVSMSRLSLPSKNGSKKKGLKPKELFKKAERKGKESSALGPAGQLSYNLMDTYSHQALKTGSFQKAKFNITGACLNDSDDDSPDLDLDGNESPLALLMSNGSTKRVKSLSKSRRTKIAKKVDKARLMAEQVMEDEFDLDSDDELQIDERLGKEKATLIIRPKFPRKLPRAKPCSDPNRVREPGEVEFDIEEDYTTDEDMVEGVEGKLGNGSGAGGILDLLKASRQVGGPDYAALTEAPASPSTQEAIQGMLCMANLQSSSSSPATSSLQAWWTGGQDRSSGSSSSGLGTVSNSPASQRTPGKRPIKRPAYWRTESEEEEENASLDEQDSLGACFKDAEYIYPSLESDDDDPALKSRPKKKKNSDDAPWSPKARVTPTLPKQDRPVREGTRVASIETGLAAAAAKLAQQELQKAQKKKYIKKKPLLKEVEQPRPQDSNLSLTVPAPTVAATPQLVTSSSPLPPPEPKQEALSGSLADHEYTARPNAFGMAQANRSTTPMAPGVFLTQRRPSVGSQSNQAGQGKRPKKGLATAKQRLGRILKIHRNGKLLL

Results are given in words; binding and its absence hold for the method and conditions named. Binding seen in cells or lysates may run through a third protein. Some binding calls cover weakened binding; strength is not graded here. Where a sequence is shown, tags or fusion partners need not be part of it.

B1: GFP-KDM2A (amino acids 667–1118) (domain or fragment, UniProt Q9Y2K7-1 667-1118)
chain: PNCWECPKCYQEDSSEKAQKRKMEESDEEAVQAKVLRPLRSCDEPLTPPPHSPTSMLQLIHDPVSPRGMVTRSSPGAGPSDHHSASRDERFKRRQLLRLQATERTMVREKENNPSGKKELSEVEKAKIRGSYLTVTLQRPTKELHGTSIVPKLQAITASSANLRHSPRVLVQHCPARTPQRGDEEGLGGEEEEEEEEEEEDDSAEEGGAARLNGRGSWAQDGDESWMQREVWMSVFRYLSRRELCECMRVCKTWYKWCCDKRLWTKIDLSRCKAIVPQALSGIIKRQPVSLDLSWTNISKKQLTWLVNRLPGLKDLLLAGCSWSAVSALSTSSCPLLRTLDLRWAVGIKDPQIRDLLTPPADKPGQDNRSKLRNMTDFRLAGLDITDATLRLIIRHMPLLSRLDLSHCSHLTDQSSNLLTAVGSSTRYSLTELNMAGCNKLTDQTLIYLRRI
B2: GFP-KDM2A (amino acids 667–1118, S731A) (domain or fragment, UniProt Q9Y2K7-1 667-1118)
chain: PNCWECPKCYQEDSSEKAQKRKMEESDEEAVQAKVLRPLRSCDEPLTPPPHSPTSMLQLIHDPVAPRGMVTRSSPGAGPSDHHSASRDERFKRRQLLRLQATERTMVREKENNPSGKKELSEVEKAKIRGSYLTVTLQRPTKELHGTSIVPKLQAITASSANLRHSPRVLVQHCPARTPQRGDEEGLGGEEEEEEEEEEEDDSAEEGGAARLNGRGSWAQDGDESWMQREVWMSVFRYLSRRELCECMRVCKTWYKWCCDKRLWTKIDLSRCKAIVPQALSGIIKRQPVSLDLSWTNISKKQLTWLVNRLPGLKDLLLAGCSWSAVSALSTSSCPLLRTLDLRWAVGIKDPQIRDLLTPPADKPGQDNRSKLRNMTDFRLAGLDITDATLRLIIRHMPLLSRLDLSHCSHLTDQSSNLLTAVGSSTRYSLTELNMAGCNKLTDQTLIYLRRI
B3: KDM2A (full length, amino acids 1–1162) (protein, UniProt Q9Y2K7-1 1-1162)
chain: MEPEEERIRYSQRLRGTMRRRYEDDGISDDEIEGKRTFDLEEKLHTNKYNANFVTFMEGKDFNVEYIQRGGLRDPLIFKNSDGLGIKMPDPDFTVNDVKMCVGSRRMVDVMDVNTQKGIEMTMAQWTRYYETPEEEREKLYNVISLEFSHTRLENMVQRPSTVDFIDWVDNMWPRHLKESQTESTNAILEMQYPKVQKYCLMSVRGCYTDFHVDFGGTSVWYHIHQGGKVFWLIPPTAHNLELYENWLLSGKQGDIFLGDRVSDCQRIELKQGYTFVIPSGWIHAVYTPTDTLVFGGNFLHSFNIPMQLKIYNIEDRTRVPNKFRYPFYYEMCWYVLERYVYCITNRSHLTKEFQKESLSMDLELNGLESGNGDEEAVDREPRRLSSRRSVLTSPVANGVNLDYDGLGKTCRSLPSLKKTLAGDSSSDCSRGSHNGQVWDPQCAPRKDRQVHLTHFELEGLRCLVDKLESLPLHKKCVPTGIEDEDALIADVKILLEELANSDPKLALTGVPIVQWPKRDKLKFPTRPKVRVPTIPITKPHTMKPAPRLTPVRPAAASPIVSGARRRRVRCRKCKACVQGECGVCHYCRDMKKFGGPGRMKQSCVLRQCLAPRLPHSVTCSLCGEVDQNEETQDFEKKLMECCICNEIVHPGCLQMDGEGLLNEELPNCWECPKCYQEDSSEKAQKRKMEESDEEAVQAKVLRPLRSCDEPLTPPPHSPTSMLQLIHDPVSPRGMVTRSSPGAGPSDHHSASRDERFKRRQLLRLQATERTMVREKENNPSGKKELSEVEKAKIRGSYLTVTLQRPTKELHGTSIVPKLQAITASSANLRHSPRVLVQHCPARTPQRGDEEGLGGEEEEEEEEEEEDDSAEEGGAARLNGRGSWAQDGDESWMQREVWMSVFRYLSRRELCECMRVCKTWYKWCCDKRLWTKIDLSRCKAIVPQALSGIIKRQPVSLDLSWTNISKKQLTWLVNRLPGLKDLLLAGCSWSAVSALSTSSCPLLRTLDLRWAVGIKDPQIRDLLTPPADKPGQDNRSKLRNMTDFRLAGLDITDATLRLIIRHMPLLSRLDLSHCSHLTDQSSNLLTAVGSSTRYSLTELNMAGCNKLTDQTLIYLRRIANVTLIDLRGCKQITRKACEHFISDLSINSLYCLSDEKLIQKIS
B4: GFP-A’ region (KDM2A amino acids 667–946) (domain or fragment, UniProt Q9Y2K7-1 667-946)
chain: PNCWECPKCYQEDSSEKAQKRKMEESDEEAVQAKVLRPLRSCDEPLTPPPHSPTSMLQLIHDPVSPRGMVTRSSPGAGPSDHHSASRDERFKRRQLLRLQATERTMVREKENNPSGKKELSEVEKAKIRGSYLTVTLQRPTKELHGTSIVPKLQAITASSANLRHSPRVLVQHCPARTPQRGDEEGLGGEEEEEEEEEEEDDSAEEGGAARLNGRGSWAQDGDESWMQREVWMSVFRYLSRRELCECMRVCKTWYKWCCDKRLWTKIDLSRCKAIVPQAL
B5: GFP-A’ region (KDM2A amino acids 667–946, S731A) (domain or fragment, UniProt Q9Y2K7-1 667-946)
chain: PNCWECPKCYQEDSSEKAQKRKMEESDEEAVQAKVLRPLRSCDEPLTPPPHSPTSMLQLIHDPVAPRGMVTRSSPGAGPSDHHSASRDERFKRRQLLRLQATERTMVREKENNPSGKKELSEVEKAKIRGSYLTVTLQRPTKELHGTSIVPKLQAITASSANLRHSPRVLVQHCPARTPQRGDEEGLGGEEEEEEEEEEEDDSAEEGGAARLNGRGSWAQDGDESWMQREVWMSVFRYLSRRELCECMRVCKTWYKWCCDKRLWTKIDLSRCKAIVPQAL
B6: GFP-KDM2A (amino acids 667–1162, d822–946) (domain or fragment, UniProt Q9Y2K7-1)
chain: PNCWECPKCYQEDSSEKAQKRKMEESDEEAVQAKVLRPLRSCDEPLTPPPHSPTSMLQLIHDPVSPRGMVTRSSPGAGPSDHHSASRDERFKRRQLLRLQATERTMVREKENNPSGKKELSEVEKAKIRGSYLTVTLQRPTKELHGTSIVPKLQASGIIKRQPVSLDLSWTNISKKQLTWLVNRLPGLKDLLLAGCSWSAVSALSTSSCPLLRTLDLRWAVGIKDPQIRDLLTPPADKPGQDNRSKLRNMTDFRLAGLDITDATLRLIIRHMPLLSRLDLSHCSHLTDQSSNLLTAVGSSTRYSLTELNMAGCNKLTDQTLIYLRRIANVTLIDLRGCKQITRKACEHFISDLSINSLYCLSDEKLIQKIS
B7: KDM2A lacking a B region (domain or fragment, UniProt Q9Y2K7-1 1-1118)
chain: MEPEEERIRYSQRLRGTMRRRYEDDGISDDEIEGKRTFDLEEKLHTNKYNANFVTFMEGKDFNVEYIQRGGLRDPLIFKNSDGLGIKMPDPDFTVNDVKMCVGSRRMVDVMDVNTQKGIEMTMAQWTRYYETPEEEREKLYNVISLEFSHTRLENMVQRPSTVDFIDWVDNMWPRHLKESQTESTNAILEMQYPKVQKYCLMSVRGCYTDFHVDFGGTSVWYHIHQGGKVFWLIPPTAHNLELYENWLLSGKQGDIFLGDRVSDCQRIELKQGYTFVIPSGWIHAVYTPTDTLVFGGNFLHSFNIPMQLKIYNIEDRTRVPNKFRYPFYYEMCWYVLERYVYCITNRSHLTKEFQKESLSMDLELNGLESGNGDEEAVDREPRRLSSRRSVLTSPVANGVNLDYDGLGKTCRSLPSLKKTLAGDSSSDCSRGSHNGQVWDPQCAPRKDRQVHLTHFELEGLRCLVDKLESLPLHKKCVPTGIEDEDALIADVKILLEELANSDPKLALTGVPIVQWPKRDKLKFPTRPKVRVPTIPITKPHTMKPAPRLTPVRPAAASPIVSGARRRRVRCRKCKACVQGECGVCHYCRDMKKFGGPGRMKQSCVLRQCLAPRLPHSVTCSLCGEVDQNEETQDFEKKLMECCICNEIVHPGCLQMDGEGLLNEELPNCWECPKCYQEDSSEKAQKRKMEESDEEAVQAKVLRPLRSCDEPLTPPPHSPTSMLQLIHDPVSPRGMVTRSSPGAGPSDHHSASRDERFKRRQLLRLQATERTMVREKENNPSGKKELSEVEKAKIRGSYLTVTLQRPTKELHGTSIVPKLQAITASSANLRHSPRVLVQHCPARTPQRGDEEGLGGEEEEEEEEEEEDDSAEEGGAARLNGRGSWAQDGDESWMQREVWMSVFRYLSRRELCECMRVCKTWYKWCCDKRLWTKIDLSRCKAIVPQALSGIIKRQPVSLDLSWTNISKKQLTWLVNRLPGLKDLLLAGCSWSAVSALSTSSCPLLRTLDLRWAVGIKDPQIRDLLTPPADKPGQDNRSKLRNMTDFRLAGLDITDATLRLIIRHMPLLSRLDLSHCSHLTDQSSNLLTAVGSSTRYSLTELNMAGCNKLTDQTLIYLRRI
B8: KDM2A lacking an A region (protein, UniProt Q9Y2K7-1)
chain: MEPEEERIRYSQRLRGTMRRRYEDDGISDDEIEGKRTFDLEEKLHTNKYNANFVTFMEGKDFNVEYIQRGGLRDPLIFKNSDGLGIKMPDPDFTVNDVKMCVGSRRMVDVMDVNTQKGIEMTMAQWTRYYETPEEEREKLYNVISLEFSHTRLENMVQRPSTVDFIDWVDNMWPRHLKESQTESTNAILEMQYPKVQKYCLMSVRGCYTDFHVDFGGTSVWYHIHQGGKVFWLIPPTAHNLELYENWLLSGKQGDIFLGDRVSDCQRIELKQGYTFVIPSGWIHAVYTPTDTLVFGGNFLHSFNIPMQLKIYNIEDRTRVPNKFRYPFYYEMCWYVLERYVYCITNRSHLTKEFQKESLSMDLELNGLESGNGDEEAVDREPRRLSSRRSVLTSPVANGVNLDYDGLGKTCRSLPSLKKTLAGDSSSDCSRGSHNGQVWDPQCAPRKDRQVHLTHFELEGLRCLVDKLESLPLHKKCVPTGIEDEDALIADVKILLEELANSDPKLALTGVPIVQWPKRDKLKFPTRPKVRVPTIPITKPHTMKPAPRLTPVRPAAASPIVSGARRRRVRCRKCKACVQGECGVCHYCRDMKKFGGPGRMKQSCVLRQCLAPRLPHSVTCSLCGEVDQNEETQDFEKKLMECCICNEIVHPGCLQMDGEGLLNEELPNCWECPKCYQEDSSEKAQKRKMEESDEEAVQAKVLRPLRSCDEPLTPPPHSPTSMLQLIHDPVSPRGMVTRSSPGAGPSDHHSASRDERFKRRQLLRLQATERTMVREKENNPSGKKELSEVEKAKIRGSYLTVTLQRPTKELHGTSIVPKLQASGIIKRQPVSLDLSWTNISKKQLTWLVNRLPGLKDLLLAGCSWSAVSALSTSSCPLLRTLDLRWAVGIKDPQIRDLLTPPADKPGQDNRSKLRNMTDFRLAGLDITDATLRLIIRHMPLLSRLDLSHCSHLTDQSSNLLTAVGSSTRYSLTELNMAGCNKLTDQTLIYLRRIANVTLIDLRGCKQITRKACEHFISDLSINSLYCLSDEKLIQKIS

This experiment deals with Flag-tagged PHF8 (PHD finger protein 8) (UniProt Q9UPP1). As to the kind of experiment: co-IP; Flag-PHF8 co-expressed with KDM2A or KDM2A constructs in 293T cells; lysates in IP buffer (0.1% Triton X-100, 300 mM NaCl, 300 mM sucrose, 1 mM MgCl2, 1 mM EGTA, 10 mM PIPES pH 7.0) precipitated with anti-Flag M2 agarose; Western blot with anti-KDM2A or anti-GFP; in Figure 4A cells with or without 2 mM 2DG for 2 h. In general terms: In western blotting, separated proteins are transferred to a membrane and probed.
For B1, the binding result is recorded as “binds”. To B2 belongs “binds”; to B3, “binds”.

Consider B4, for which the binding entry is “binds”. To B5 belongs “binds”. To B6 belongs “binds”. To B7 belongs “binds”; to B8, “binds”.
